Values from PubChem BioAssay AID1159584 (Peter MacCallum Cancer Centre, 2016)

Assay: 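Genes that CDH1-null MCF10A cells selectively depend on to survive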 (primary screen)
Cells: human MCF10A breast epithelial cells, parental and CDH1-null
Reagent: siRNA against human genes
Detection: 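Cell viability by CellTiter-Glo ATP luminescence, each line scaled to the mean of mock wells across plates, then CDH1-null over parental ratio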
Reading the numbers: CDH1-null / parental viability ratio: higher = CDH1-null cells survive relatively better than parental; CDH1-null viability vs mock: higher = more viable CDH1-null cells
Units: CDH1-null viability vs mock in fraction of mock
Shown is a random part of about 18,000 deposited reagents. Further read-outs or replicates are left out here. Not given: the amount of reagent, the time to read-out.

For CD52 (CD52 molecule), the values are CDH1-null / parental viability ratio 1.22; CDH1-null viability vs mock 0.5. After knock-down of BIRC7 (baculoviral IAP repeat containing 7) the results were CDH1-null / parental viability ratio 1.02; CDH1-null viability vs mock 0.96. After knock-down of CCDC77 (coiled-coil domain containing 77), the screen gave CDH1-null / parental viability ratio 1.07; CDH1-null viability vs mock 0.48. Against CTHRC1 (collagen triple helix repeat containing 1), the entry reads CDH1-null / parental viability ratio 1.33; CDH1-null viability vs mock 0.8. Against EWSR1 (EWS RNA binding protein 1) the deposit lists CDH1-null / parental viability ratio 0.9; CDH1-null viability vs mock 0.88. FGF18 (fibroblast growth factor 18) gave CDH1-null / parental viability ratio 0.91; CDH1-null viability vs mock 0.64.

Against MYO15A (myosin XVA), the entry reads CDH1-null / parental viability ratio 1; CDH1-null viability vs mock 0.75. After knock-down of ACYP1 (acylphosphatase 1), the record shows CDH1-null / parental viability ratio 0.96; CDH1-null viability vs mock 0.86. For GAL3ST1 (galactose-3-O-sulfotransferase 1) the deposit lists CDH1-null / parental viability ratio 0.98; CDH1-null viability vs mock 0.86. Silencing of PRKAA1 (protein kinase AMP-activated catalytic subunit alpha 1) gave: CDH1-null / parental viability ratio 0.96; CDH1-null viability vs mock 0.88. With knock-down of USP45 (ubiquitin specific peptidase 45), the screen gave CDH1-null / parental viability ratio 1.11; CDH1-null viability vs mock 0.8.

Not a retest: entries from further up.
GAL3ST1 (galactose-3-O-sulfotransferase 1) → CDH1-null / parental viability ratio: 0.98; CDH1-null viability vs mock: 0.86
PRKAA1 (protein kinase AMP-activated catalytic subunit alpha 1) → CDH1-null / parental viability ratio: 0.96; CDH1-null viability vs mock: 0.88

The list goes on:
Depletion of SPANXN5 (SPANX family member N5) came out at: CDH1-null / parental viability ratio 0.86; CDH1-null viability vs mock 0.74. With knock-down of COQ9 (coenzyme Q9) the results were CDH1-null / parental viability ratio 0.97; CDH1-null viability vs mock 0.85. Silencing of SPOCK1 came out at: CDH1-null / parental viability ratio 1.39; CDH1-null viability vs mock 1.11. Against SLC16A12, the entry reads CDH1-null / parental viability ratio 1.37; CDH1-null viability vs mock 0.96. Against CASP8 (caspase 8) the deposit lists CDH1-null / parental viability ratio 1.08; CDH1-null viability vs mock 0.94. For POLR2H (RNA polymerase II, I and III subunit H) the deposit lists CDH1-null / parental viability ratio 1.18; CDH1-null viability vs mock 0.78.

Against KRTAP4-12 (keratin associated protein 4-12) the deposit lists CDH1-null / parental viability ratio 1.02; CDH1-null viability vs mock 0.84. With knock-down of DHX57 (DExH-box helicase 57), the record shows CDH1-null / parental viability ratio 0.83; CDH1-null viability vs mock 0.68. PIGQ (phosphatidylinositol glycan anchor biosynthesis class Q) scored CDH1-null / parental viability ratio 1.08; CDH1-null viability vs mock 0.8. Depletion of RPF1 (ribosome production factor 1 homolog) came out at: CDH1-null / parental viability ratio 0.86; CDH1-null viability vs mock 0.57. After knock-down of ACTL7A (actin like 7A), the record shows CDH1-null / parental viability ratio 1.52; CDH1-null viability vs mock 0.94. TRIM29 (tripartite motif containing 29) showed CDH1-null / parental viability ratio 1.13; CDH1-null viability vs mock 0.52.

GPM6B (glycoprotein M6B) scored CDH1-null / parental viability ratio 0.96; CDH1-null viability vs mock 0.67. Depletion of PLA2G12B (phospholipase A2 group XIIB) gave: CDH1-null / parental viability ratio 0.86; CDH1-null viability vs mock 0.55. Silencing of LRRC39 (leucine rich repeat containing 39) gave: CDH1-null / parental viability ratio 0.9; CDH1-null viability vs mock 0.65. LYPD4 (LY6/PLAUR domain containing 4) gave CDH1-null / parental viability ratio 1.16; CDH1-null viability vs mock 1. Against NFAM1 (NFAT activating protein with ITAM motif 1) the deposit lists CDH1-null / parental viability ratio 1.12; CDH1-null viability vs mock 1.01. Against RALA (RAS like proto-oncogene A) the deposit lists CDH1-null / parental viability ratio 0.99; CDH1-null viability vs mock 0.87.

With knock-down of CMPK1 (cytidine/uridine monophosphate kinase 1), the screen gave CDH1-null / parental viability ratio 1.05; CDH1-null viability vs mock 0.82. Silencing of MVB12A (multivesicular body subunit 12A) gave: CDH1-null / parental viability ratio 1.09; CDH1-null viability vs mock 0.74. Silencing of FKBP11 (FKBP prolyl isomerase 11) came out at: CDH1-null / parental viability ratio 1.38; CDH1-null viability vs mock 0.99. MYOM1 (myomesin 1) showed CDH1-null / parental viability ratio 1.05; CDH1-null viability vs mock 1.11. For IRF2BP1 (interferon regulatory factor 2 binding protein 1) the deposit lists CDH1-null / parental viability ratio 0.99; CDH1-null viability vs mock 0.94. After knock-down of NCKAP1 (NCK associated protein 1), the screen gave CDH1-null / parental viability ratio 0.84; CDH1-null viability vs mock 0.62.
